Test results: paper PMC9022993
Results are given in words; binding and its absence hold for the method and conditions named.

By UniProt entry, the sequences of proteins in these tests, tags left out.
UniProt O60260: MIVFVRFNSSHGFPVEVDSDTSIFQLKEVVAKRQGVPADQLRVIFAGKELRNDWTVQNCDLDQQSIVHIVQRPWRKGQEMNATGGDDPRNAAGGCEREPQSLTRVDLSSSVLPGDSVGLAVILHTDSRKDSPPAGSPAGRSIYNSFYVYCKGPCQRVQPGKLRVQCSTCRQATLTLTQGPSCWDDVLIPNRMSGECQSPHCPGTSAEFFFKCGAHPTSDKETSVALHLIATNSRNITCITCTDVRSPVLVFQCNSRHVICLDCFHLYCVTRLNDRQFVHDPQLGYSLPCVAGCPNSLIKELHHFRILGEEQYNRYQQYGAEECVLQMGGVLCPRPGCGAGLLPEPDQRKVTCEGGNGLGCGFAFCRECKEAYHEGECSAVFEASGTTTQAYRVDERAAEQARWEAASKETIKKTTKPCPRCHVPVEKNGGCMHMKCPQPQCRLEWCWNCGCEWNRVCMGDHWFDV

Target: human parkin, full-length, affinity tag cleaved (human) (UniProt O60260)
Experiment: MST + ITC; parkin with CISD1 (Supplementary Fig. S2); the text names 'either MST or ITC' and does not tell which was used for CISD1; both purified

B1: human CISD1 (residues 32-108), entire extramembranous portion (domain or fragment, UniProt Q9NZ45 32-108)
chain: KRFYVKDHRNKAMINLHIQKDNPKIVHAFDMEDLGDKAVYCRCWRSKKFPFCDGAHTKHNEETGDNVGPLIIKKKET
  binding: no binding (tested: Kd greater than 100 µM)
